These are yes or no findings as the source states them, for the method shown. In cells and extracts the contact can be indirect. Some entries that bind do so weakly or less than the wild type. Sequences can lack the tags named with a protein.
Target: N-terminally FLAG-HA epitope-tagged human HIRIP3 (e-HIRIP3) (human) (UniProt Q9BW71)
Experiment: co-IP; the tandem FLAG/HA-purified soluble nuclear (SNC) and chromatin-associated (CAC) e-HIRIP3 complexes from HeLa probed by Western blot with anti-H2A, anti-H2A.Z, anti-H3, anti-H2B and anti-CK2 alpha

binding: binds
Substance: CK2 kinase (casein kinase CK2 alpha (CSNK2A1 or CSNK2A2) and beta subunits) (from UniProt P68400 1-391; P19784 1-350; P67870 1-215) (complex)

— publication PMC10854748
